Assay results taken from publication PMC11379074.
No constants are given. Whether binding was seen depends on the method and setting. In cells and extracts the contact can be indirect. These calls come from enrichment with a bait or labelling near it, and not all partners need be listed.

Amino acid sequences for entries named in this document (tags omitted). A change or cut given only in a name is not applied to a line headed by its entry.
UniProt Q14554: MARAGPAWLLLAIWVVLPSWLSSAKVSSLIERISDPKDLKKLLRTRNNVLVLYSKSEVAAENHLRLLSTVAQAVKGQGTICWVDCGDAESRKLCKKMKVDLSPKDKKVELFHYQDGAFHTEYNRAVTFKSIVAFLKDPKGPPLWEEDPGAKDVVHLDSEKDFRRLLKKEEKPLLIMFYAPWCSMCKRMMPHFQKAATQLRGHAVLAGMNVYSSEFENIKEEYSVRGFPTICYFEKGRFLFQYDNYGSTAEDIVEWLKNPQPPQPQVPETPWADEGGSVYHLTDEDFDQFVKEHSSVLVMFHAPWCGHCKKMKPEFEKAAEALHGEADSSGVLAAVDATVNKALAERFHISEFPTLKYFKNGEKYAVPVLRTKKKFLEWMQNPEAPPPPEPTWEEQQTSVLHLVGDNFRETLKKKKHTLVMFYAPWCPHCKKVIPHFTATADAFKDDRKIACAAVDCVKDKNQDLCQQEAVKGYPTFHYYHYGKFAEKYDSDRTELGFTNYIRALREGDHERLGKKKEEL

Molecular target: Flag-mut-PDIA5 (human) (UniProt Q14554)
Experiment: affinity purification with mass spectrometry; anti-Flag immunoprecipitation from lysate of U251MG cells stably expressing Flag-mut-PDIA5; LC-MS of the precipitate

B1: cell division cycle and apoptosis regulator protein 1 (CCAR1) (protein, UniProt Q8IX12 1-1150)
chain: MAQFGGQKNPPWATQFTATAVSQPAALGVQQPSLLGASPTIYTQQTALAAAGLTTQTPANYQLTQTAALQQQAAAAAAALQQQYSQPQQALYSVQQQLQQPQQTLLTQPAVALPTSLSLSTPQPTAQITVSYPTPRSSQQQTQPQKQRVFTGVVTKLHDTFGFVDEDVFFQLSAVKGKTPQVGDRVLVEATYNPNMPFKWNAQRIQTLPNQNQSQTQPLLKTPPAVLQPIAPQTTFGVQTQPQPQSLLQAQISAASITPLLQTQPQPLLQQPQQKAGLLQPPVRIVSQPQPARRLDPPSRFSGRNDRGDQVPNRKDDRSRERERERRRSRERSPQRKRSRERSPRRERERSPRRVRRVVPRYTVQFSKFSLDCPSCDMMELRRRYQNLYIPSDFFDAQFTWVDAFPLSRPFQLGNYCNFYVMHREVESLEKNMAILDPPDADHLYSAKVMLMASPSMEDLYHKSCALAEDPQELRDGFQHPARLVKFLVGMKGKDEAMAIGGHWSPSLDGPDPEKDPSVLIKTAIRCCKALTGIDLSVCTQWYRFAEIRYHRPEETHKGRTVPAHVETVVLFFPDVWHCLPTRSEWETLSRGYKQQLVEKLQGERKEADGEQDEEEKDDGEAKEISTPTHWSKLDPKTMKVNDLRKELESRALSSKGLKSQLIARLTKQLKVEEQKEEQKELEKSEKEEDEDDDRKSEDDKEEEERKRQEEIERQRRERRYILPDEPAIIVHPNWAAKSGKFDCSIMSLSVLLDYRLEDNKEHSFEVSLFAELFNEMLQRDFGVRIYKSLLSLPEKEDKKEKDKKSKKDERKDKKEERDDETDEPKPKRRKSGDDKDKKEDRDERKKEDKRKDDSKDDDETEEDNNQDEYDPMEAEEAEDEEDDRDEEEMTKRDDKRDINRYCKERPSKDKEKEKTQMITINRDLLMAFVYFDQSHCGYLLEKDLEEILYTLGLHLSRAQVKKLLNKVVLRESCFYRKLTDTSKDEENHEESESLQEDMLGNRLLLPTPTVKQESKDVEENVGLIVYNGAMVDVGSLLQKLEKSEKVRAEVEQKLQLLEEKTDEDEKTILNLENSNKSLSGELREVKKDLSQLQENLKISENMNLQFENQMNKTIRNLSTVMDEIHTVLKKDNVKNEDKDQKSKENGASV
binding: binds
